Data published in paper PMC7362500.
Residue numbers refer to the chain shown, from its start. Numbers in names are those of the source. Results are given in words; binding and its absence hold for the method and conditions named. In cells and extracts the contact can be indirect. Some results given as binding are weak or reduced against the parent protein; the word gives no strength. For some assays here: Sequences can lack the tags named with a protein.

Protein sequences, listed by entry. Tags and fused reporters are not part of them. Residues count along the entry.
UniProt Q9NZQ7, residues 19-290: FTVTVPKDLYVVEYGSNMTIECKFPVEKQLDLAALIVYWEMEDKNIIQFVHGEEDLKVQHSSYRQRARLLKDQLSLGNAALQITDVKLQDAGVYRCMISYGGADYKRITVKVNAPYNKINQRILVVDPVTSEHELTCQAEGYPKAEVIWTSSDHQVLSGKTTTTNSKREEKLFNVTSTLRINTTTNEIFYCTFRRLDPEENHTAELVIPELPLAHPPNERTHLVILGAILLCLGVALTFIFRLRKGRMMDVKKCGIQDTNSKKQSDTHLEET
UniProt Q92905: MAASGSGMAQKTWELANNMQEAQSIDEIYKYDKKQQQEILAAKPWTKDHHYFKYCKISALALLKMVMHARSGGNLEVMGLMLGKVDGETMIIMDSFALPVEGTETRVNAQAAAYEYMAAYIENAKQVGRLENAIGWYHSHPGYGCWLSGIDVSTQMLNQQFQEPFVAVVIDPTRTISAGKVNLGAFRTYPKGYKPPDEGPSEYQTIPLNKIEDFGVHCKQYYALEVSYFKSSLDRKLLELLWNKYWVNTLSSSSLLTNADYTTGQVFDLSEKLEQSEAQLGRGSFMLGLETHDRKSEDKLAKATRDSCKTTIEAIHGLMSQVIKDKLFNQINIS

Experiments:
[1] = molecular target: PD-L1-FLAG (Programmed Cell Death 1 Ligand 1) (UniProt Q9NZQ7); assay: co-IP; USP22, CSN5 and PD-L1 plasmids transfected as indicated, with or without the third protein (Fig. 7a, b); cells and antibodies not stated
[2] = molecular target: CSN5-His (COP9 Signalosome Subunit 5) (UniProt Q92905); assay: co-IP; HEK293FT cell lysates, IP under non-denaturing conditions with either anti-HA or anti-His antibody
[3] = molecular target: PD-L1-FLAG (Programmed Cell Death 1 Ligand 1) (UniProt Q9NZQ7); assay: co-IP; within the PD-L1 ubiquitination experiment with wild type or C185A USP22 (Fig. 4c); cells not stated for this panel
[4] = molecular target: PD-L1-FLAG (Programmed Cell Death 1 Ligand 1) (UniProt Q9NZQ7); assay: co-IP; HEK293FT cells, transfected; IP with either anti-HA or anti-FLAG antibody; lysis buffer 20 mM Tris-HCl pH 7.5, 150 mM NaCl, 1% Triton; Western blot
[5] = molecular target: PD-L1 in H157 cells (UniProt Q9NZQ7); assay: co-IP; H157 cells (Fig. S2A); lysis buffer 20 mM Tris-HCl pH 7.5, 150 mM NaCl, 1% Triton; Western blot
[6] = molecular target: endogenous CSN5 (H1299 cells) (human (endogenous in H1299)) (UniProt Q92905); assay: co-IP; H1299 cells, endogenous proteins, IP with anti-USP22 or anti-CSN5 antibody

## CSN5-His (COP9 Signalosome Subunit 5) (from UniProt Q92905 1-334)
[1]
  binding: binds

B1: USP22-HA (Ubiquitin Specific Peptidase 22) (enzyme, UniProt Q9UPT9 1-525)
chain: MVSRPEPEGEAMDAELAVAPPGCSHLGSFKVDNWKQNLRAIYQCFVWSGTAEARKRKAKSCICHVCGVHLNRLHSCLYCVFFGCFTKKHIHEHAKAKRHNLAIDLMYGGIYCFLCQDYIYDKDMEIIAKEEQRKAWKMQGVGEKFSTWEPTKRELELLKHNPKRRKITSNCTIGLRGLINLGNTCFMNCIVQALTHTPLLRDFFLSDRHRCEMQSPSSCLVCEMSSLFQEFYSGHRSPHIPYKLLHLVWTHARHLAGYEQQDAHEFLIAALDVLHRHCKGDDNGKKANNPNHCNCIIDQIFTGGLQSDVTCQVCHGVSTTIDPFWDISLDLPGSSTPFWPLSPGSEGNVVNGESHVSGTTTLTDCLRRFTRPEHLGSSAKIKCSGCHSYQESTKQLTMKKLPIVACFHLKRFEHSAKLRRKITTYVSFPLELDMTPFMASSKESRMNGQYQQPTDSLNNDNKYSLFAVVNHQGTLESGHYTSFIRQHKDQWFKCDDAIITKASIKDVLDSEGYLLFYHKQFLEYE
[2]
  binding: binds
[3]
  binding: binds
[1]
  binding: binds
[4]
  binding: binds

B2: USP22 in H157 cells (enzyme, UniProt Q9UPT9 1-525)
chain: B1 chain
[5]
  binding: binds

B3: USP22-C185A (enzyme, UniProt Q9UPT9 1-525)
chain: B1 chain with C185A
[3]
  binding: binds

B4: endogenous USP22 (H1299 cells) (enzyme, UniProt Q9UPT9 1-525)
chain: B1 chain
[6]
  binding: binds
